Measured values reported in patent US9550768B2, “Kinase modulation and indications therefor” (PLEXXIKON INC., priority 2011, dated 2017).
pIC50: −log10 of the molar value. Some results were stated once for a whole list of compounds, not compound by compound.

Target: T1, FLT3-ITD (Homo sapiens, UniProt P36888)
T1 sequence (P36888 with tags, fused parts or gaps INS600HVDFREYEYD): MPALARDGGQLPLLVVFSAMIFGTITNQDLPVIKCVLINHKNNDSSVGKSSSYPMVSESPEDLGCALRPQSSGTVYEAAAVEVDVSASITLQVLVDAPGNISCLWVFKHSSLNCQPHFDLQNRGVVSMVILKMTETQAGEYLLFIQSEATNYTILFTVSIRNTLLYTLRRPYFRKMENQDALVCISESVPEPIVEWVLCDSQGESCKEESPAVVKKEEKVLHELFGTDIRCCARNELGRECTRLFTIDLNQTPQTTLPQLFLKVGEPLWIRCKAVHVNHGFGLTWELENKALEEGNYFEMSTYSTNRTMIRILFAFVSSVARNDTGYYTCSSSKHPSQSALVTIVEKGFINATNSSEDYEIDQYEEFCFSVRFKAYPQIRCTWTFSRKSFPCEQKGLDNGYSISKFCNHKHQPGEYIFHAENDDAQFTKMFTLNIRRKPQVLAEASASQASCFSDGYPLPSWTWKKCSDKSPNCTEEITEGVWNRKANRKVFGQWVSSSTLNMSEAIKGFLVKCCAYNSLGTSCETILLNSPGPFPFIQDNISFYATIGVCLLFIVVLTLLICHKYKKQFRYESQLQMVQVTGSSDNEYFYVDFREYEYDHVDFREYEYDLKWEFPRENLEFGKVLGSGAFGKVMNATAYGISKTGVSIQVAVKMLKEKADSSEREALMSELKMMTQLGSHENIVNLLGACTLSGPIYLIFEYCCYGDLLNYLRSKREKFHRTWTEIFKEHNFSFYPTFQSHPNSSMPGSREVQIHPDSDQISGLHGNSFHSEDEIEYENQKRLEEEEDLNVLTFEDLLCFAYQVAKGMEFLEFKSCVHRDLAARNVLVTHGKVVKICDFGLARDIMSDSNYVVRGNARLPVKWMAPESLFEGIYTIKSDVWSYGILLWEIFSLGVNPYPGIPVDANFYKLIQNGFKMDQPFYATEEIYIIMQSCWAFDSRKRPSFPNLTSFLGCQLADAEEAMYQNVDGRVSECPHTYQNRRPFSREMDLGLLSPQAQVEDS
Test: Flt3 assays described in Example 3 (cell-based assays of Flt3-ITD kinase activity in MV-4-11 cells)
Conditions: read-out: IC50 in the Flt3 assays described above in Example 3

Question: With COc1ncccc1CNc1ccc(Cc2c[nH]c3ncc(C#N)cc23)cn1 [Compound P-0287, 3-{6-[(2-Methoxy-pyridin-3-ylmethyl)-amino]-pyridin-3-ylmethyl}-1H-pyrrolo[2,3-b]pyridine-5-carbonitrile] as the molecule, how does the pIC50 read?
Answer: > 6.00

Question: CCOc1ccccc1CNc1ccc(Cc2c[nH]c3ncccc23)cn1 [Compound P-0288, (2-Ethoxy-benzyl)-[5-(1H-pyrrolo[2,3-b]pyridin-3-ylmethyl)-pyridin-2-yl]-amine] was tested. Which pIC50 did it give?
Answer: > 6.00

Question: With Fc1ccc(C(F)(F)F)cc1CNc1ncc(Cc2c[nH]c3ncc(Cl)cc23)cn1 [Compound P-0289, [5-(5-Chloro-1H-pyrrolo[2,3-b]pyridin-3-ylmethyl)-pyrimidin-2-yl]-(2-fluoro-5-trifluoromethyl-benzyl)-amine] as the molecule, how does the pIC50 read?
Answer: > 6.00

Question: How did the pIC50 turn out when Fc1ccc(CNc2ncc(Cc3c[nH]c4ncc(Cl)cc34)s2)cc1 [Compound P-0290, [5-(5-Chloro-1H-pyrrolo[2,3-b]pyridin-3-ylmethyl)-thiazol-2-yl]-(4-fluoro-benzyl)-amine] was run?
Answer: > 6.00

Question: Fc1ccc(C(F)(F)F)cc1CNc1ncc(Cc2c[nH]c3ncccc23)cn1 [Compound P-0291, (2-Fluoro-5-trifluoromethyl-benzyl)-[5-(1H-pyrrolo[2,3-b]pyridin-3-ylmethyl)-pyrimidin-2-yl]-amine] was tested. Which pIC50 did it give?
Answer: > 6.00

Question: How did the pIC50 turn out when Fc1cc(CNc2ncc(Cc3c[nH]c4ncccc34)cn2)cc(C(F)(F)F)c1 [Compound P-0294, (3-Fluoro-5-trifluoromethyl-benzyl)-[5-(1H-pyrrolo[2,3-b]pyridin-3-ylmethyl)-pyrimidin-2-yl]-amine] was run?
Answer: > 6.00

Question: How did the pIC50 turn out when Cc1cnc2[nH]cc(Cc3ccc(NCc4cc(F)ccc4F)nc3)c2c1 [Compound P-0297, (2,5-Difluoro-benzyl)-[5-(5-methyl-1H-pyrrolo[2,3-b]pyridin-3-ylmethyl)-pyridin-2-yl]-amine] was run?
Answer: > 6.00

Question: With Fc1ccc(F)c(CNc2ccc(Cc3c[nH]c4ncc(Cl)cc34)cn2)c1 [Compound P-0298, [5-(5-Chloro-1H-pyrrolo[2,3-b]pyridin-3-ylmethyl)-pyridin-2-yl]-(2,5-difluoro-benzyl)-amine] as the molecule, how does the pIC50 read?
Answer: > 6.00

Question: With Clc1ccccc1CNc1ncc(Cc2c[nH]c3ncccc23)cn1 [Compound P-0301, (2-Chloro-benzyl)-[5-(1H-pyrrolo[2,3-b]pyridin-3-ylmethyl)-pyrimidin-2-yl]-amine] as the molecule, how does the pIC50 read?
Answer: > 6.00

Question: With FC(F)(F)c1ccccc1CNc1ncc(Cc2c[nH]c3ncccc23)cn1 [Compound P-0302, [5-(1H-Pyrrolo[2,3-b]pyridin-3-ylmethyl)-pyrimidin-2-yl]-(2-trifluoromethyl-benzyl)-amine] as the molecule, how does the pIC50 read?
Answer: > 6.00

Question: How did the pIC50 turn out when FC(F)(F)Oc1ccccc1CNc1ncc(Cc2c[nH]c3ncccc23)cn1 [Compound P-0303, [5-(1H-Pyrrolo[2,3-b]pyridin-3-ylmethyl)-pyrimidin-2-yl]-(2-trifluoromethoxy-benzyl)-amine] was run?
Answer: > 6.00

Question: Clc1ccc(CNc2ncc(Cc3c[nH]c4ncccc34)cn2)c(Cl)c1 [Compound P-0305, (2,4-Dichloro-benzyl)-[5-(1H-pyrrolo[2,3-b]pyridin-3-ylmethyl)-pyrimidin-2-yl]-amine] was tested. Which pIC50 did it give?
Answer: > 6.00

Question: With Fc1ccc(CNc2ncc(Cc3c[nH]c4ncccc34)cn2)c(F)c1 [Compound P-0306, (2,4-Difluoro-benzyl)-[5-(1H-pyrrolo[2,3-b]pyridin-3-ylmethyl)-pyrimidin-2-yl]-amine] as the molecule, how does the pIC50 read?
Answer: > 6.00

Question: With Clc1ccc(CNc2ncc(Cc3c[nH]c4ncccc34)cn2)cc1 [Compound P-0307, (4-Chloro-benzyl)-[5-(1H-pyrrolo[2,3-b]pyridin-3-ylmethyl)-pyrimidin-2-yl]-amine] as the molecule, how does the pIC50 read?
Answer: > 6.00

Question: How did the pIC50 turn out when FC(F)(F)c1ccc(CNc2ncc(Cc3c[nH]c4ncccc34)cn2)cc1 [Compound P-0308, [5-(1H-Pyrrolo[2,3-b]pyridin-3-ylmethyl)-pyrimidin-2-yl]-(4-trifluoromethyl-benzyl)-amine] was run?
Answer: > 6.00

Question: How did the pIC50 turn out when Fc1c(CNc2ncc(Cc3c[nH]c4ncccc34)cn2)cccc1C(F)(F)F [Compound P-0309, (2-Fluoro-3-trifluoromethyl-benzyl)-[5-(1H-pyrrolo[2,3-b]pyridin-3-ylmethyl)-pyrimidin-2-yl]-amine] was run?
Answer: > 6.00

Question: With Fc1c(Cl)cccc1CNc1ncc(Cc2c[nH]c3ncccc23)cn1 [Compound P-0311, (3-Chloro-2-fluoro-benzyl)-[5-(1H-pyrrolo[2,3-b]pyridin-3-ylmethyl)-pyrimidin-2-yl]-amine] as the molecule, how does the pIC50 read?
Answer: > 6.00

Question: How did the pIC50 turn out when FC(F)Oc1ccccc1CNc1ncc(Cc2c[nH]c3ncccc23)cn1 [Compound P-0312, (2-Difluoromethoxy-benzyl)-[5-(1H-pyrrolo[2,3-b]pyridin-3-ylmethyl)-pyrimidin-2-yl]-amine] was run?
Answer: > 6.00

Question: How did the pIC50 turn out when Clc1cccc(CNc2ncc(Cc3c[nH]c4ncccc34)cn2)c1Cl [Compound P-0313, (2,3-Dichloro-benzyl)-[5-(1H-pyrrolo[2,3-b]pyridin-3-ylmethyl)-pyrimidin-2-yl]-amine] was run?
Answer: > 6.00

Question: How did the pIC50 turn out when Fc1cc(Cl)ccc1CNc1ncc(Cc2c[nH]c3ncccc23)cn1 [Compound P-0314, (4-Chloro-2-fluoro-benzyl)-[5-(1H-pyrrolo[2,3-b]pyridin-3-ylmethyl)-pyrimidin-2-yl]-amine] was run?
Answer: > 6.00

Question: How did the pIC50 turn out when Fc1ccc(CNc2ncc(Cc3c[nH]c4ncccc34)cn2)c(Cl)c1 [Compound P-0316, (2-Chloro-4-fluoro-benzyl)-[5-(1H-pyrrolo[2,3-b]pyridin-3-ylmethyl)-pyrimidin-2-yl]-amine] was run?
Answer: > 6.00

Question: With Fc1cc(C(F)(F)F)ccc1CNc1ncc(Cc2c[nH]c3ncccc23)cn1 [Compound P-0319, (2-Fluoro-4-trifluoromethyl-benzyl)-[5-(1H-pyrrolo[2,3-b]pyridin-3-ylmethyl)-pyrimidin-2-yl]-amine] as the molecule, how does the pIC50 read?
Answer: > 6.00

Question: With Fc1ccc(CNc2ncc(Cc3c[nH]c4ncccc34)cn2)c(C(F)(F)F)c1 [Compound P-0320, (4-Fluoro-2-trifluoromethyl-benzyl)-[5-(1H-pyrrolo[2,3-b]pyridin-3-ylmethyl)-pyrimidin-2-yl]-amine] as the molecule, how does the pIC50 read?
Answer: > 6.00

Question: How did the pIC50 turn out when N#Cc1cnc2[nH]cc(Cc3ccc(NCc4ccccc4OC(F)(F)F)nc3)c2c1 [Compound P-0321, 3-[6-(2-Trifluoromethoxy-benzylamino)-pyridin-3-ylmethyl]-1H-pyrrolo[2,3-b]pyridine-5-carbonitrile] was run?
Answer: > 6.00

Question: FC(F)(F)Oc1ccccc1CNc1ccc(Cc2c[nH]c3ncccc23)cn1 [Compound P-0322, [5-(1H-Pyrrolo[2,3-b]pyridin-3-ylmethyl)-pyridin-2-yl]-(2-trifluoromethoxy-benzyl)-amine] was tested. Which pIC50 did it give?
Answer: > 6.00

Question: How did the pIC50 turn out when CCOc1ccccc1CNc1ccc(Cc2c[nH]c3ncc(C#N)cc23)cn1 [Compound P-0323, 3-[6-(2-Ethoxy-benzylamino)-pyridin-3-ylmethyl]-1H-pyrrolo[2,3-b]pyridine-5-carbonitrile] was run?
Answer: > 6.00

Question: How did the pIC50 turn out when Fc1cncc(CNc2ccc(Cc3c[nH]c4ncc(Cl)cc34)cn2)c1 [Compound P-0324, [5-(5-Chloro-1H-pyrrolo[2,3-b]pyridin-3-ylmethyl)-pyridin-2-yl]-(5-fluoro-pyridin-3-ylmethyl)-amine] was run?
Answer: > 6.00

Question: How did the pIC50 turn out when Fc1cnc2[nH]cc(Cc3ccc(NCc4ccccc4C(F)(F)F)nc3)c2c1 [Compound P-0325, [5-(5-Fluoro-1H-pyrrolo[2,3-b]pyridin-3-ylmethyl)-pyridin-2-yl]-(2-trifluoromethyl-benzyl)-amine] was run?
Answer: > 6.00

Question: With COc1cnc2[nH]cc(Cc3ccc(NCc4ccccc4C(F)(F)F)nc3)c2c1 [Compound P-0326, [5-(5-Methoxy-1H-pyrrolo[2,3-b]pyridin-3-ylmethyl)-pyridin-2-yl]-(2-trifluoromethyl-benzyl)-amine] as the molecule, how does the pIC50 read?
Answer: > 6.00

Question: With Fc1cnc2[nH]cc(Cc3ccc(NCc4ccccc4Cl)nc3)c2c1 [Compound P-0327, (2-Chloro-benzyl)-[5-(5-fluoro-1-pyrrolo[2,3-b]pyridin-3-ylmethyl)-pyridin-2-yl]-amine] as the molecule, how does the pIC50 read?
Answer: > 6.00

Question: With COc1cnc2[nH]cc(Cc3ccc(NCc4ccccc4Cl)nc3)c2c1 [Compound P-0328, (2-Chloro-benzyl)-[5-(5-methoxy-1-pyrrolo[2,3-b]pyridin-3-ylmethyl)-pyridin-2-yl]-amine] as the molecule, how does the pIC50 read?
Answer: > 6.00

Question: With Fc1ccc(F)c(CNc2ccc(Cc3c[nH]c4ncc(F)cc34)cn2)c1 [Compound P-0329, (2,5-Difluoro-benzyl)-[5-(5-fluoro-1H-pyrrolo[2,3-b]pyridin-3-ylmethyl)-pyridin-2-yl]-amine] as the molecule, how does the pIC50 read?
Answer: > 6.00

Question: With COc1cnc2[nH]cc(Cc3ccc(NCc4cc(F)ccc4F)nc3)c2c1 [Compound P-0330, (2,5-Difluoro-benzyl)-[5-(5-methoxy-1H-pyrrolo[2,3-b]pyridin-3-ylmethyl)-pyridin-2-yl]-amine] as the molecule, how does the pIC50 read?
Answer: > 6.00
